{"source": "PubChem BioAssay AID1159584 (Peter MacCallum Cancer Centre, 2016)", "screen": "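Knock-downs that harm CDH1-null cells more than parental MCF10A cells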 (primary screen)", "cell system": "human MCF10A breast epithelial cells, parental and CDH1-null", "reagent": "siRNA against human genes", "measurement": "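Cell viability by CellTiter-Glo ATP luminescence, each line scaled to the mean of mock wells across plates, then CDH1-null over parental ratio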", "scale": "CDH1-null / parental viability ratio: higher = CDH1-null cells survive relatively better than parental", "note": "The deposit covers about 18,000 reagents; shown is an unselected part. Further read-outs or replicates are left out here. Reagent sequences are not shown. Not stated in the record: the amount of reagent, the time to read-out."}
{"gene symbol": "ANK1 (ankyrin 1)", "CDH1-null / parental viability ratio": 0.92}
{"gene symbol": "NCAPG2 (non-SMC condensin II complex subunit G2)", "CDH1-null / parental viability ratio": 1.27}
{"gene symbol": "CALU (calumenin)", "CDH1-null / parental viability ratio": 0.98}
{"gene symbol": "ZNF575 (zinc finger protein 575)", "CDH1-null / parental viability ratio": 1.15}
{"gene symbol": "MIMS2 (mitochondrial inner membrane structural 2)", "CDH1-null / parental viability ratio": 1.16}
{"gene symbol": "MRFAP1 (Morf4 family associated protein 1)", "CDH1-null / parental viability ratio": 0.81}
{"gene symbol": "QRFP (pyroglutamylated RFamide peptide)", "CDH1-null / parental viability ratio": 1.69}
{"gene symbol": "BANK1 (B cell scaffold protein with ankyrin repeats 1)", "CDH1-null / parental viability ratio": 0.79}

Copied from the list:
Entry for ANK1 (ankyrin 1) in “CDH1-null / parental viability ratio”: 0.92
MIMS2 (mitochondrial inner membrane structural 2), CDH1-null / parental viability ratio → 1.16

Additional records follow.
{"gene symbol": "CRISPLD2 (cysteine rich secretory protein LCCL domain containing 2)", "CDH1-null / parental viability ratio": 1.05}
{"gene symbol": "UBN1 (ubinuclein 1)", "CDH1-null / parental viability ratio": 1.43}
{"gene symbol": "RNF114 (ring finger protein 114)", "CDH1-null / parental viability ratio": 0.91}
{"gene symbol": "MPC1", "CDH1-null / parental viability ratio": 0.97}
{"gene symbol": "GPNMB (glycoprotein nmb)", "CDH1-null / parental viability ratio": 0.88}
{"gene symbol": "FBXO16 (F-box protein 16)", "CDH1-null / parental viability ratio": 1.24}
{"gene symbol": "CYP4F8 (cytochrome P450 family 4 subfamily F member 8)", "CDH1-null / parental viability ratio": 1.1}
{"gene symbol": "GIT2 (GIT ArfGAP 2)", "CDH1-null / parental viability ratio": 1.11}
{"gene symbol": "HGH1 (HGH1 cochaperone)", "CDH1-null / parental viability ratio": 0.94}
{"gene symbol": "MKS1 (MKS transition zone complex subunit 1)", "CDH1-null / parental viability ratio": 1.11}
{"gene symbol": "HLA-F (major histocompatibility complex, class I, F)", "CDH1-null / parental viability ratio": 0.91}
{"gene symbol": "SNX29P1 (sorting nexin 29 pseudogene 1)", "CDH1-null / parental viability ratio": 0.79}
{"gene symbol": "IGDCC3 (immunoglobulin superfamily DCC subclass member 3)", "CDH1-null / parental viability ratio": 1.35}
{"gene symbol": "LMO1 (LIM domain only 1)", "CDH1-null / parental viability ratio": 0.94}
{"gene symbol": "DNASE2 (deoxyribonuclease 2, lysosomal)", "CDH1-null / parental viability ratio": 0.95}
{"gene symbol": "PITPNC1 (phosphatidylinositol transfer protein cytoplasmic 1)", "CDH1-null / parental viability ratio": 0.76}
